The supplement of paper PMC8728848
The list shows a part of the results.

Columns and labels:
Experiment in all cases: glycan array binding signal (z-score within array); higher = stronger binding
Conditions in all cases: glycan notation: IUPAC condensed, linker removed
[1] = biological target: Neu5Ac(a2-3)Gal(b1-3)GalNAc(b1-4)[Neu5Ac(a2-3)]Gal(b1-4)Glc
In short: (§1)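 The binding signal is a Z-score computed within each array and averaged over linkers. Arrays of the same protein sequence at different concentrations or buffers were also averaged together. Data originate from 3228 arrays in the Consortium for Functional Glycomics database, kept only where the protein sequence was available.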

[2] = biological target: Neu5Ac(a2-3)Gal(b1-3)GalNAc(b1-4)[Neu5Ac(a2-8)Neu5Ac(a2-3)]Gal(b1-4)Glc
In short: as §1

[3] = biological target: Neu5Ac(a2-3)Gal(b1-3)GalNAc6S
In short: as §1

[4] = biological target: Neu5Ac(a2-3)Gal(b1-3)GlcNAc
In short: as §1

[5] = biological target: Neu5Ac(a2-3)Gal(b1-3)GlcNAc(b1-2)Man(a1-3)[GlcNAc(b1-4)][Neu5Ac(a2-3)Gal(b1-3)GlcNAc(b1-2)Man(a1-6)]Man(b1-4)GlcNAc(b1-4)GlcNAc
In short: as §1

[6] = biological target: Neu5Ac(a2-3)Gal(b1-3)GlcNAc(b1-3)Gal(b1-3)GlcNAc
In short: as §1

[7] = biological target: Neu5Ac(a2-3)Gal(b1-3)GlcNAc(b1-3)Gal(b1-4)GlcNAc
In short: as §1

[8] = biological target: Neu5Ac(a2-3)Gal(b1-3)GlcNAc(b1-3)GalNAc
In short: as §1

[9] = biological target: Neu5Ac(a2-3)Gal(b1-3)GlcNAc(b1-6)GalNAc
In short: as §1

[10] = biological target: Neu5Ac(a2-3)Gal(b1-3)GlcNAc6S
In short: as §1

[11] = biological target: Neu5Ac(a2-3)Gal(b1-3)[Fuc(a1-4)]GlcNAc
In short: as §1

[12] = biological target: Neu5Ac(a2-3)Gal(b1-3)[Fuc(a1-4)]GlcNAc(b1-3)Gal(b1-3)[Fuc(a1-4)]GlcNAc
In short: as §1

[13] = biological target: Neu5Ac(a2-3)Gal(b1-3)[Fuc(a1-4)]GlcNAc(b1-3)Gal(b1-4)[Fuc(a1-3)]GlcNAc
In short: as §1

[14] = biological target: Neu5Ac(a2-3)Gal(b1-3)[Neu5Ac(a2-3)Gal(b1-4)]GlcNAc
In short: as §1

[15] = biological target: Neu5Ac(a2-3)Gal(b1-3)[Neu5Ac(a2-6)]GalNAc
In short: as §1

[16] = biological target: Neu5Ac(a2-3)Gal(b1-3)[Neu5Ac(a2-6)]GlcNAc(b1-3)[Fuc(a1-3)[Gal(b1-4)]GlcNAc(b1-6)]Gal(b1-4)Glc
In short: as §1

Neu5Ac(a2-3)Gal(b1-4)Glc = biological target: Neu5Ac(a2-3)Gal(b1-4)Glc
In short: as §1

[17] = biological target: Neu5Ac(a2-3)Gal(b1-4)GlcNAc
In short: as §1

[18] = biological target: Neu5Ac(a2-3)Gal(b1-4)GlcNAc(b1-2)Man
In short: as §1

[19] = biological target: Neu5Ac(a2-3)Gal(b1-4)GlcNAc(b1-2)Man(a1-3)[GlcNAc(b1-2)Man(b1-4)GlcNAc(b1-2)Man(a1-6)]Man(b1-4)GlcNAc(b1-4)GlcNAc
In short: as §1

[20] = biological target: Neu5Ac(a2-3)Gal(b1-4)GlcNAc(b1-2)Man(a1-3)[Neu5Ac(a2-3)Gal(b1-4)GlcNAc(b1-2)Man(a1-6)]Man(b1-4)GlcNAc(b1-4)[Fuc(a1-6)]GlcNAc
In short: as §1

[21] = biological target: Neu5Ac(a2-3)Gal(b1-4)GlcNAc(b1-2)Man(a1-3)[Neu5Ac(a2-6)Gal(b1-4)GlcNAc(b1-2)Man(a1-6)]Man(b1-4)GlcNAc(b1-4)GlcNAc
In short: as §1

[22] = biological target: Neu5Ac(a2-3)Gal(b1-4)GlcNAc(b1-2)[Neu5Ac(a2-3)Gal(b1-4)GlcNAc(b1-6)]Man(a1-6)[Neu5Ac(a2-3)Gal(b1-4)GlcNAc(b1-2)Man(a1-3)]Man(b1-4)GlcNAc(b1-4)GlcNAc
In short: as §1

[23] = biological target: Neu5Ac(a2-3)Gal(b1-4)GlcNAc(b1-3)Gal
In short: as §1

[24] = biological target: Neu5Ac(a2-3)Gal(b1-4)GlcNAc(b1-3)Gal(b1-3)GlcNAc
In short: as §1

[25] = biological target: Neu5Ac(a2-3)Gal(b1-4)GlcNAc(b1-3)Gal(b1-4)GlcNAc
In short: as §1

[26] = biological target: Neu5Ac(a2-3)Gal(b1-4)GlcNAc(b1-3)Gal(b1-4)GlcNAc(b1-3)Gal(b1-4)GlcNAc
In short: as §1

[27] = biological target: Neu5Ac(a2-3)Gal(b1-4)GlcNAc(b1-3)Gal(b1-4)[Fuc(a1-3)]GlcNAc
In short: as §1

[28] = biological target: Neu5Ac(a2-3)Gal(b1-4)GlcNAc(b1-3)GalNAc
In short: as §1

[29] = biological target: Neu5Ac(a2-3)Gal(b1-4)GlcNAc(b1-3)[Neu5Ac(a2-3)Gal(b1-4)GlcNAc(b1-6)]GalNAc
In short: as §1

[30] = biological target: Neu5Ac(a2-3)Gal(b1-4)GlcNAc(b1-6)GalNAc
In short: as §1

[31] = biological target: Neu5Ac(a2-3)Gal(b1-4)GlcNAc(b1-6)[Gal(b1-3)]GalNAc
In short: as §1

[32] = biological target: Neu5Ac(a2-3)Gal(b1-4)GlcNAc(b1-6)[Neu5Ac(a2-3)Gal(b1-3)]GalNAc
In short: as §1

[33] = biological target: Neu5Ac(a2-3)Gal(b1-4)GlcNAc6S
In short: as §1

[34] = biological target: Neu5Ac(a2-3)Gal(b1-4)[Fuc(a1-3)]GlcNAc
In short: as §1

[35] = biological target: Neu5Ac(a2-3)Gal(b1-4)[Fuc(a1-3)]GlcNAc(b1-3)Gal
In short: as §1

[36] = biological target: Neu5Ac(a2-3)Gal(b1-4)[Fuc(a1-3)]GlcNAc(b1-3)Gal(b1-4)GlcNAc
In short: as §1

B1: CALR truncated at D342 (Homo sapiens) (protein)
chain: EPAVYFKEQFLDGDGWTSRWIESKHKSDFGKFVLSSGKFYGDEEKDKGLQTSQDARFYALSASFEPFSNKGQTLVVQFTVKHEQNIDCGGGYVKLFPNSLDQTDMHGDSEYNIMFGPDICGPGTKKVHVIFNYKGKNVLINKDIRCKDDEFTHLYTLIVRPDNTYEVKIDNSQVESGSLEDDWDFLPPKKIKDPDASKPEDWDERAKIDDPTDSKPEDWDKPEHIPDPDAKKPEDWDEEMDGEWEPPVIQNPEYKGEWKPRQIDNPDYKGTWIHPEIDNPEYSPDPSIYAYDNFGVLGLDLWQVKSGTIFDNFLITNDEAYAEEFGNETWGVTKAAEKQMKD
With B1 as the binder, how does the “glycan array binding signal (z-score)” value [1] read?
The value was -1.12.

What about the “glycan array binding signal (z-score)” value [2] of the same binder?
The value was 0.182.

What about the “glycan array binding signal (z-score)” value [3] of the same binder?
Its value is 0.488.

And the “glycan array binding signal (z-score)” value [4]?
Its value is -0.162.

What about the “glycan array binding signal (z-score)” value [5] of the same binder?
The value was -0.42.

And the “glycan array binding signal (z-score)” value [6]?
Its value is 0.177.

And the “glycan array binding signal (z-score)” value [7]?
The value was 0.007.

And the “glycan array binding signal (z-score)” value [8]?
Its value is 0.067.

What about the “glycan array binding signal (z-score)” value [9] of the same binder?
The value was 0.449.

What about the “glycan array binding signal (z-score)” value [10] of the same binder?
Its value is 0.808.

And the “glycan array binding signal (z-score)” value [11]?
The value was 0.822.

And the “glycan array binding signal (z-score)” value [12]?
Its value is 1.42.

What about the “glycan array binding signal (z-score)” value [13] of the same binder?
The value was 0.332.

What about the “glycan array binding signal (z-score)” value [14] of the same binder?
Its value is -0.092.

And the “glycan array binding signal (z-score)” value [15]?
Its value is -0.78.

And the “glycan array binding signal (z-score)” value [16]?
Its value is 0.026.

What about the “glycan array binding signal (z-score)” value (Neu5Ac(a2-3)Gal(b1-4)Glc) of the same binder?
Its value is 0.264.

What about the “glycan array binding signal (z-score)” value [17] of the same binder?
Its value is -0.691.

What about the “glycan array binding signal (z-score)” value [18] of the same binder?
Its value is 1.56.

And the “glycan array binding signal (z-score)” value [19]?
Its value is 0.262.

And the “glycan array binding signal (z-score)” value [20]?
The value was -0.547.

What about the “glycan array binding signal (z-score)” value [21] of the same binder?
The value was 0.174.

What about the “glycan array binding signal (z-score)” value [22] of the same binder?
The value was -0.637.

What about the “glycan array binding signal (z-score)” value [23] of the same binder?
The value was -0.413.

What about the “glycan array binding signal (z-score)” value [24] of the same binder?
Its value is -0.238.

What about the “glycan array binding signal (z-score)” value [25] of the same binder?
The value was -1.28.

And the “glycan array binding signal (z-score)” value [26]?
Its value is -0.788.

And the “glycan array binding signal (z-score)” value [27]?
The value was 1.2.

And the “glycan array binding signal (z-score)” value [28]?
The value was -0.856.

And the “glycan array binding signal (z-score)” value [29]?
Its value is -0.117.

And the “glycan array binding signal (z-score)” value [30]?
Its value is 0.454.

What about the “glycan array binding signal (z-score)” value [31] of the same binder?
Its value is -0.684.

And the “glycan array binding signal (z-score)” value [32]?
The value was -1.7.

What about the “glycan array binding signal (z-score)” value [33] of the same binder?
Its value is -0.22.

And the “glycan array binding signal (z-score)” value [34]?
The value was -0.849.

And the “glycan array binding signal (z-score)” value [35]?
Its value is -0.711.

What about the “glycan array binding signal (z-score)” value [36] of the same binder?
Its value is 0.453.
